Source: patent publication US20260234159A1, “SMALL MOLECULE TREATMENT OF FATTY LIVER DISEASE AND HCC” (SCANDIEDGE THERAPEUTICS AB, priority 2023, published 2026)
Some entries share one result that the patent states for a list of compounds.

Columns and labels:
[1] = system: HepG2 cells; test: Triglyceride (TAG) measurement assay, one week steatosis model; format: cell-based, human
Experimental: HepG2 wild type cells were purchased from genome engineering company Synthego. Cells were maintained with Roswell Park Memorial Institute growth media, RPMI, 1640 (R2405, Sigma-Aldrich) and supplemented with 10% fetal bovine serum (FBS, F7524, Sigma-Aldrich), 1% penicillin-streptomycin (P/S, P4333, Sigma-Aldrich). Steatosis induction media was prepared as high glucose Dulbecco's Modified Eagle Media (DMEM, D0819, Sigma-Aldrich) with 10% FBS, 1% P/S media supplemented with 10 μg/ml insulin (I9278, Sigma-Aldrich), and 10 μM T0901317 (T2320, Sigma-Aldrich). HepG2 cells were seeded 6×10^4 cells per well for 96-well plate and 1×10^6 cells per well for 6-well plate. HepG2 cells were incubated with steatosis induce media (SM) for one week by 3 day+2 day+2 day with total three times media exchange.
HepG2 cells were seeded at 6×10^4 cells per well into 96 well plate and induced steatosis for one week with 10 μM of target drugs. After steatosis induction, cells were washed with 200 μl of phosphate buffered saline (PBS) and triglyceride contents was measured by Triglyceride Assay Kit—Quantification (ab65336, Abcam) following manufacturer's instruction. Optical density (O.D) values were detected with microplate reader at 570 nm (Hidex Sense Beta Plus).
HepG2 cells were seeded at 60,000 cells per well in 96 well plate. Using steatosis induce media, the cells were treated with 10 μM of target drugs for one week. The media was changed 3 times at day 0, day 3 and day 5. TAG assay was performed using MAK266-1KT SDS Triglyceride Quantification Colorimetric kit and cell viability analysis was performed using MTT assay.

[2] = system: PKLR; test: Activity (effectiveness) of synthesized compounds, Table 1; format: cell-based, human

Structure (SMILES)	TAG levels / TAG accumulation [1]	activity [2]
CN(C)C(=O)N1CCc2c(sc(NC(=O)c3cccc4ccccc34)c2C#N)C1 [PKL-A117]	particularly low TAG levels	–
N#Cc1c(NC(=O)c2cccc3ccccc23)sc2c1CCN(C(=O)Nc1ccccc1F)C2 [PKL-A119]	particularly low TAG levels	–
COc1cccc(NC(=O)N2CCc3c(sc(NC(=O)c4cccc5ccccc45)c3C#N)C2)c1 [PKL-A151]	particularly low TAG levels	–
COc1ccccc1NC(=O)N1CCc2c(sc(NC(=O)c3cccc4ccccc34)c2C#N)C1 [PKL-A152]	particularly low TAG levels	–
Cc1ccccc1NC(=O)N1CCc2c(sc(NC(=O)c3cccc4ccccc34)c2C#N)C1 [PKL-A153]	particularly low TAG levels	–
N#Cc1c(NC(=O)c2cccc3ccccc23)sc2c1CCN(C(=O)Nc1ccccc1[N+](=O)[O-])C2 [PKL-A154]	particularly low TAG levels	–
N#Cc1c(NC(=O)c2cccc3ccccc23)sc2c1CCN(C(=O)Nc1ccccc1Cl)C2 [PKL-A156]	particularly low TAG levels	–
N#Cc1c(NC(=O)c2cccc3ccccc23)sc2c1CCN(C(=O)Nc1ccccc1Br)C2 [PKL-A157]	particularly low TAG levels	–
N#Cc1c(NC(=O)c2cccc3ccccc23)sc2c1CCN(C(=O)Nc1ccccc1C(F)(F)F)C2 [PKL-A158]	particularly low TAG levels	–
N#Cc1c(NC(=O)c2cccc3ccccc23)sc2c1CCN(C(=O)Nc1ccccc1OC(F)(F)F)C2 [PKL-A159]	particularly low TAG levels	–
Cc1ccc(F)c(NC(=O)N2CCc3c(sc(NC(=O)c4cccc5ccccc45)c3C#N)C2)c1 [PKL-A160]	particularly low TAG levels	–
N#Cc1c(NC(=O)c2cccc3ccccc23)sc2c1CCN(C(=O)Nc1cccc3ccccc13)C2 [PKL-A161]	particularly low TAG levels	–
CN(C(=O)N1CCc2c(sc(NC(=O)c3cccc4ccccc34)c2C#N)C1)c1ccccc1 [PKL-A162]	particularly low TAG levels	–
CCN(C)C(=O)N1CCc2c(sc(NC(=O)c3cccc4ccccc34)c2C#N)C1 [PKL-A163]	particularly low TAG levels	–
N#Cc1c(NC(=O)c2cccc3ccccc23)sc2c1CCN(C(=O)N(c1ccccc1)c1ccccc1)C2 [PKL-A164]	particularly low TAG levels	–
N#Cc1c(NC(=O)c2cccc3ccccc23)sc2c1CCN(CC(=O)c1ccccc1)C2 [PKL-B130]	–	particularly active
N#Cc1c(NC(=O)c2cccc3ccccc23)sc2c1CCN(CC(=O)NC1CCOCC1)C2 [PKL-B164]	–	particularly active
C#Cc1cccc(NC(=O)CN2CCc3c(sc(NC(=O)c4cccc5ccccc45)c3C#N)C2)c1 [PKL-B170]	–	particularly active
N#Cc1c(NC(=O)c2cccc3ccccc23)sc2c1CCN(CC(=O)Nc1cccc(Br)c1)C2 [PKL-B171]	–	particularly active
N#Cc1c(NC(=O)c2cccc3ccccc23)sc2c1CCN(CC(=O)Nc1ccnc(Cl)n1)C2 [PKL-B172]	–	particularly active
